In publication PMC12148024:
No constants are given. Whether binding was seen depends on the method and setting. Some results given as binding are weak or reduced against the parent protein; the word gives no strength.

The chains behind the UniProt entries cited, without tags or fusion partners. Where a name states a change or a piece, a line headed by the entry shows the natural chain unless it says otherwise.
UniProt P60900: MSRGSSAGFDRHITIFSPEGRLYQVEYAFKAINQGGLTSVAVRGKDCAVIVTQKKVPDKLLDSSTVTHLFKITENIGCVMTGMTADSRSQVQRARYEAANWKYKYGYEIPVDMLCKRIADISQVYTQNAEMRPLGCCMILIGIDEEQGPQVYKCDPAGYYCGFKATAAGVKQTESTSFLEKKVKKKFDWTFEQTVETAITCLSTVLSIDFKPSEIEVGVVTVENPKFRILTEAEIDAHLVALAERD

Biological target: α-subunit ring assembly intermediate (Band 3): intact ring of 20S α1–α7 subunits (human (endogenous in HAP1)) (UniProt P60900)
Experiment: native gel or EMSA; cell extracts (PI31 WT and KO, with or without 100 U/ml IFNγ 24 h, with or without POMP siRNA) on 3–8% polyacrylamide Tris-acetate native gels, 4°C, 90 mM Tris-borate, 5 mM MgCl2, 100 µM ATP; western blotting of the native gel and of a second-dimension SDS-PAGE; proteins found in the same band

B1: PAC3/PAC4 heterodimeric chaperone (complex, UniProt Q9BT73 1-122; Q5JS54 1-123)
chain 1: MEDTPLVISKQKTEVVCGVPTQVVCTAFSSHILVVVTQFGKMGTLVSLEPSSVASDVSKPVLTTKVLLGQDEPLIHVFAKNLVAFVSQEAGNRAVLLAVAVKDKSMEGLKALREVIRVCQVW
chain 2: MEGLVVAAGGDVSLHNFSARLWEQLVHFHVMRLTDSLFLWVGATPHLRNLAVAMCSRYDSIPVSTSLLGDTSDTTSTGLAQRLARKTNKQVFVSYNLQNTDSNFALLVENRIKEEMEAFPEKF
Question: With B1 as the binder, how does the binding read?
Answer: binds
